From the supplement of paper PMC12067093, “Discovery and optimisation of a covalent ligand for TRIM25 and its application to targeted protein ubiquitination” (Chemical Science, 2025) come the findings set out here.

Chains of the proteins cited; added tags and fusions are not shown. Lines headed by an entry give the natural chain unless they say otherwise; changes in a name come on top.
UniProt P22087: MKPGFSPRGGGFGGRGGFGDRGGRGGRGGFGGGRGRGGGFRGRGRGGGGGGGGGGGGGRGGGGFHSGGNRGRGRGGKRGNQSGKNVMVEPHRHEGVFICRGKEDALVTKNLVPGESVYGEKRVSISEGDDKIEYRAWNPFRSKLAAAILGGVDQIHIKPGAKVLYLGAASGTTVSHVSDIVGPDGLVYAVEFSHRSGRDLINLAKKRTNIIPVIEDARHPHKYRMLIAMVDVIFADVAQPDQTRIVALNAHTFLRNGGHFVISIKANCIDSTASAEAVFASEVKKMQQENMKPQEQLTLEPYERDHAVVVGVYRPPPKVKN
UniProt Q658Y4: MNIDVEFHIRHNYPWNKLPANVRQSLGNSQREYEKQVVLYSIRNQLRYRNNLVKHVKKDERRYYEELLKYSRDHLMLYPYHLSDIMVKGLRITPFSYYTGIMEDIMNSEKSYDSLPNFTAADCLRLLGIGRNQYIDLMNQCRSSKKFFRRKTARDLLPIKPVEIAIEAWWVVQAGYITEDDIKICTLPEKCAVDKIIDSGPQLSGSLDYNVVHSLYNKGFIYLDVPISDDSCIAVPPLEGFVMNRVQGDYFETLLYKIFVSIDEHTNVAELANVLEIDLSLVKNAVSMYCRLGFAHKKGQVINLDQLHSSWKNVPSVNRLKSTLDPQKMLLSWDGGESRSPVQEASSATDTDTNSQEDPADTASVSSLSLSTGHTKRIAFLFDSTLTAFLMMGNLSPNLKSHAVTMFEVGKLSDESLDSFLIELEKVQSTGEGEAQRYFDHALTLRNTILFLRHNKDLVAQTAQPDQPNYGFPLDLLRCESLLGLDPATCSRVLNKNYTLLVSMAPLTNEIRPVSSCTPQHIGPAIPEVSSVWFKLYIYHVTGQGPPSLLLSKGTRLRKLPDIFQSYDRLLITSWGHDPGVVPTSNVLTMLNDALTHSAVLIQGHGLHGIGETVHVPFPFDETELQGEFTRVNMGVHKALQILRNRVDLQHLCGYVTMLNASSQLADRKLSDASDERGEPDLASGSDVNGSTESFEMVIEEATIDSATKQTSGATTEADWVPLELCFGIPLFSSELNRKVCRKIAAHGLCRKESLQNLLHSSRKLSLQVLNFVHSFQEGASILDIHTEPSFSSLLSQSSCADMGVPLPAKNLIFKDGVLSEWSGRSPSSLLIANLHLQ
UniProt Q53R41: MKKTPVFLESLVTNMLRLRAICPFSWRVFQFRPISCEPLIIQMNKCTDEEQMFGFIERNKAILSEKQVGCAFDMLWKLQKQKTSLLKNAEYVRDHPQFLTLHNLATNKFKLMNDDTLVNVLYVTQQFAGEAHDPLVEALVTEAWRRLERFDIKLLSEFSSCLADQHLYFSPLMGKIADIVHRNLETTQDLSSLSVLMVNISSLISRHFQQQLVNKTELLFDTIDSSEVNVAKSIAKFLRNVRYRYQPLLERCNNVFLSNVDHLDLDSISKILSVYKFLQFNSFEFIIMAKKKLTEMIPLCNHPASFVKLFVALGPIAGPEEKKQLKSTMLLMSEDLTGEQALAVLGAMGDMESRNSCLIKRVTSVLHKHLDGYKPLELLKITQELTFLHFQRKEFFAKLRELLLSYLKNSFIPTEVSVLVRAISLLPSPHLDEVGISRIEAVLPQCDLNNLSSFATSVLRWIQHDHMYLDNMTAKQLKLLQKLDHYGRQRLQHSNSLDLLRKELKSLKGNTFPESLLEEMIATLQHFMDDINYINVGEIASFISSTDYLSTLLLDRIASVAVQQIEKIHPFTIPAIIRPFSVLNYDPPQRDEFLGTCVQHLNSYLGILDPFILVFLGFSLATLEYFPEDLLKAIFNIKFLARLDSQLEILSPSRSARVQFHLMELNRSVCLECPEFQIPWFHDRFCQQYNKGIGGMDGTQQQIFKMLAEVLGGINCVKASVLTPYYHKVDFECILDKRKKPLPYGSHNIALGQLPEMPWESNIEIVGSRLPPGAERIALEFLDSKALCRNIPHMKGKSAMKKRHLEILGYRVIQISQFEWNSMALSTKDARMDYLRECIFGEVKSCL
UniProt P49327, whole entry, looked up: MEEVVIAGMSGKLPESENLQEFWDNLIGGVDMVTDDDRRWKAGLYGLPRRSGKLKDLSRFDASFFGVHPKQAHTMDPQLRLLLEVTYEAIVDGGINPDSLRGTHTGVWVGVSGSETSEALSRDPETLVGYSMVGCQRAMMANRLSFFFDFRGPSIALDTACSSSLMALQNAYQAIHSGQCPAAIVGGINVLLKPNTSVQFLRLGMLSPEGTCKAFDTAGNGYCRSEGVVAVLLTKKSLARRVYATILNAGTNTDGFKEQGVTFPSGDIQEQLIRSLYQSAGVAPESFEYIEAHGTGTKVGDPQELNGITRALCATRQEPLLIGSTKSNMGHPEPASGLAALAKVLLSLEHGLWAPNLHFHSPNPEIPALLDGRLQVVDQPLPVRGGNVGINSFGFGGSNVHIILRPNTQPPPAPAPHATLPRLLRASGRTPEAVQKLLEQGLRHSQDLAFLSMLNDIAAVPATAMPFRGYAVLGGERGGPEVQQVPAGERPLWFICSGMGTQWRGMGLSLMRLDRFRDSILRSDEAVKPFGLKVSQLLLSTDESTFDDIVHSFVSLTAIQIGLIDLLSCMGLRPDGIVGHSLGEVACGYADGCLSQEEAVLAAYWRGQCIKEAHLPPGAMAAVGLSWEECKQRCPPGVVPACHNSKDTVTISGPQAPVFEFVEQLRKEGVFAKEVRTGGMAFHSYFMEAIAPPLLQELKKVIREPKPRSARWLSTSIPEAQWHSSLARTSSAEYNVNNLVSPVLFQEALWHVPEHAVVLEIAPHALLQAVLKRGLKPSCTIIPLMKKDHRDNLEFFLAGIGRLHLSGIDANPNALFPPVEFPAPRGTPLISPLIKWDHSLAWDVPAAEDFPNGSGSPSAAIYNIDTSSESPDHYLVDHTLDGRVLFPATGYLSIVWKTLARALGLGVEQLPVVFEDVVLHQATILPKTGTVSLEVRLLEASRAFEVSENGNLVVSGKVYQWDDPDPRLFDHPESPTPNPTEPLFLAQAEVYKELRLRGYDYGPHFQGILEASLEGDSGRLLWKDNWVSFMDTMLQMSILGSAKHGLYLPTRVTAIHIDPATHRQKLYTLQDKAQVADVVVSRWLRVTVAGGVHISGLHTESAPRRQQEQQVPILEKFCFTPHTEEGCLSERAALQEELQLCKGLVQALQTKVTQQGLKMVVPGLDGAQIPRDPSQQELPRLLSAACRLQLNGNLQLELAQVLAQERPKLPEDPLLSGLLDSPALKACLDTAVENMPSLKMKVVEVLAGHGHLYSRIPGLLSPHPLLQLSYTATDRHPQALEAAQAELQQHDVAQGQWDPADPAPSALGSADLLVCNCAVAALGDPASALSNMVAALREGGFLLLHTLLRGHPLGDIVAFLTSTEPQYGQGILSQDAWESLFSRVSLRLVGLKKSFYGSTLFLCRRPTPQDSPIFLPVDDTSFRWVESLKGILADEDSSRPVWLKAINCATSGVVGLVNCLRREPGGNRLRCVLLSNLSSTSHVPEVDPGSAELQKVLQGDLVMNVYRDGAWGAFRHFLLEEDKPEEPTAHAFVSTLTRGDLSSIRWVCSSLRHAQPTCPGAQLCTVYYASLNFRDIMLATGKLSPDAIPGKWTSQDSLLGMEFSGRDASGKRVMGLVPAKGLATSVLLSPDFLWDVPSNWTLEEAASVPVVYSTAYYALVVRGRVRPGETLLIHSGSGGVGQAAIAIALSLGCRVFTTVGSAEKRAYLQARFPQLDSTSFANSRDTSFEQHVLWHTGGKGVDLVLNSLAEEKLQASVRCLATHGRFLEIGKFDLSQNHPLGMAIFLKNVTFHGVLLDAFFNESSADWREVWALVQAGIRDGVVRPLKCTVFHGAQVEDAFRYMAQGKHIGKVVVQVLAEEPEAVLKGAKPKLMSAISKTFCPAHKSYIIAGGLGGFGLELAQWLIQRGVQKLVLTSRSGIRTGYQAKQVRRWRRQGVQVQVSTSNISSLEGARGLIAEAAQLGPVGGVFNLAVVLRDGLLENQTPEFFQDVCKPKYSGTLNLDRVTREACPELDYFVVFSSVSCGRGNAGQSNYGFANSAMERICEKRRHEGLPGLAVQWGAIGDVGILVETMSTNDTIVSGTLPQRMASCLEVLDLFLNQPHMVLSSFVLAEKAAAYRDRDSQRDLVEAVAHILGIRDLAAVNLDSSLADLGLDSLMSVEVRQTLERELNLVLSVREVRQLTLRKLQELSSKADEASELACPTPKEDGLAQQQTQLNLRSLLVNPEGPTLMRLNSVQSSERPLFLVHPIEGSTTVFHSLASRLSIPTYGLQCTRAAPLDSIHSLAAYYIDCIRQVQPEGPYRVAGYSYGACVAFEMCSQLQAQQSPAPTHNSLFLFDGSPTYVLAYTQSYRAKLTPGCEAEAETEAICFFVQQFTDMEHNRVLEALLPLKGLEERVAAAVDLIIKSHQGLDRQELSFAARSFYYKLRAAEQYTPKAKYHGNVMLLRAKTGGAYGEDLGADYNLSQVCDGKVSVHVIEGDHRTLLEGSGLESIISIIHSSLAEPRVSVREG
UniProt Q9Y3I1: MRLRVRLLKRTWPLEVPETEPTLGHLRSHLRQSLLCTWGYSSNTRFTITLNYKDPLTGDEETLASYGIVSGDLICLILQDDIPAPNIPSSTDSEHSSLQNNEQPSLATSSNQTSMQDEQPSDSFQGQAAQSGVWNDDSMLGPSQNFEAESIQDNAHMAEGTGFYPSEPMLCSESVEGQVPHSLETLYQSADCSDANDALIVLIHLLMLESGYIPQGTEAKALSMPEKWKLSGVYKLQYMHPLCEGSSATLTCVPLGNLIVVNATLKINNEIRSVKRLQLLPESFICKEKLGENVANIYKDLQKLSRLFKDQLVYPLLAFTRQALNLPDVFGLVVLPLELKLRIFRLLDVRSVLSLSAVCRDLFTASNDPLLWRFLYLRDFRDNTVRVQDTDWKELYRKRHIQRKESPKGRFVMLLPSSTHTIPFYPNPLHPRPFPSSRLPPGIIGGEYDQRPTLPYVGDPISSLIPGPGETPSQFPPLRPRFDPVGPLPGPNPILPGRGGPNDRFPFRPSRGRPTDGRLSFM
UniProt Q9NYY8: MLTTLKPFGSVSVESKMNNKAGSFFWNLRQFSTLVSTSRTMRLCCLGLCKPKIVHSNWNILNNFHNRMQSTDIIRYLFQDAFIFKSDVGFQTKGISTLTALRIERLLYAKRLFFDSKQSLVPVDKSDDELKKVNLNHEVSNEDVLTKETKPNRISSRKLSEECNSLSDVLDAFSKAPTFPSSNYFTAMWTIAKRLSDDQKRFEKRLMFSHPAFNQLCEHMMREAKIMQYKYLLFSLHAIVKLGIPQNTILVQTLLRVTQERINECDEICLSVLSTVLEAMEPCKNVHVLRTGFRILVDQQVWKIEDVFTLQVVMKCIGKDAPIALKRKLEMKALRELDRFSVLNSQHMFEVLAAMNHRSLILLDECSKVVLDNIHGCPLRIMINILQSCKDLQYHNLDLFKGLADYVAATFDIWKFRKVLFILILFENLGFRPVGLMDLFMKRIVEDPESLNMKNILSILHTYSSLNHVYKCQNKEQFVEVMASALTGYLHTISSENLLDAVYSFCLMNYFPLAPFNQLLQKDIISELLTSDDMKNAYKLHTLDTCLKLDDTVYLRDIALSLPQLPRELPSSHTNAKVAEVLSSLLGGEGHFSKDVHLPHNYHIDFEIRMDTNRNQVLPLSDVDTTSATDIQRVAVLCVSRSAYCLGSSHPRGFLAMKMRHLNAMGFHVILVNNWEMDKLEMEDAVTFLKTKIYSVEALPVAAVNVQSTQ
UniProt P07332: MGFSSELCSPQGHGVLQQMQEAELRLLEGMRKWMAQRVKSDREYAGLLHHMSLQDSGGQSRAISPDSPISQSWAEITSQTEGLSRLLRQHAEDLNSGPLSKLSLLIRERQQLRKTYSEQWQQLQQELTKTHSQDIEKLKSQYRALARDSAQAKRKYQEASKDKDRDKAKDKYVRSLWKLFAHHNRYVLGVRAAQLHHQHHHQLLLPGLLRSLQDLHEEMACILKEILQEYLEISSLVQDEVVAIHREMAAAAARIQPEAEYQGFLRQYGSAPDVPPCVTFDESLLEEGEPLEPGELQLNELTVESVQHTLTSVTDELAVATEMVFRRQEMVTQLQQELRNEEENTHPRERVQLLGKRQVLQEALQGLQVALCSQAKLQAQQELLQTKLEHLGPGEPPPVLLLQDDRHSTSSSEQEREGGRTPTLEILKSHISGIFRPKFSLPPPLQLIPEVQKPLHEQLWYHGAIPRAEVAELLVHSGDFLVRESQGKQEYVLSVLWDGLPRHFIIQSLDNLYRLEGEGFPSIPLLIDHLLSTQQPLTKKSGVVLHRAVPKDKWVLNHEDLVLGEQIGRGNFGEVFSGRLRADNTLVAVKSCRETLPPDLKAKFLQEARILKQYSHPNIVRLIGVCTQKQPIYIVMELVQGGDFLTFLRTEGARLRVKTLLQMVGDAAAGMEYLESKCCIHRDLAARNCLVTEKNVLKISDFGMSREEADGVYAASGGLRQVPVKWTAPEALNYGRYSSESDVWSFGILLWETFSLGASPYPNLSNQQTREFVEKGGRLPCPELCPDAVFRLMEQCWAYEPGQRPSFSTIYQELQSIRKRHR

Compound in the test: CC1Cc2ccccc2N1C(=O)C1CCCN(C1)C(=O)CCl (mixture of isomers) [TRIM25 ligand 11 (diastereomer mixture)]
The test is described as follows: probe-labelled cysteine peptide fold change vs DMSO (competition) (log2 fold change); higher = less target engagement (more negative = stronger competition). Particulars: THP-1, incubation time: 4 h.

The other results are listed elsewhere or left out.
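Further: competitive chemoproteomic profiling in live THP-1 cells with an iodoacetamide desthiobiotin (IA-DTB) probe, comparing probe-labelled peptide intensities in compound-treated cells against DMSO-treated controls.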

With “FCHO1_O14526_371_APACSPEAAAAQLR (UniProt O14526)”, the “probe-labelled cysteine peptide fold change” value reads like this: (10 µM) -0.000522; (50 µM) 0.0121.
Consider “FAM136A_Q96C01_110_QQLDSCVTK (UniProt Q96C01)”, for which the “probe-labelled cysteine peptide fold change” value by setting is: (10 µM) -0.171; (50 µM) 0.0583.
The matching figures for “FEM1B_Q9UK73_244_ADVVELLLSHADCDR (UniProt Q9UK73)”: 0.0229 and -0.171.
Regarding FBL_P22087_99_HEGVFICR (UniProt P22087), the “probe-labelled cysteine peptide fold change” value (10 µM) stood at 0.0275 and the “probe-labelled cysteine peptide fold change” value (50 µM) came out at 0.0186.
For the target “FEN1_P39748_182_VYAAATEDMDCLTFGSPVLMR (UniProt P39748)”, the “probe-labelled cysteine peptide fold change” value was -0.0914 (10 µM) and -0.13 (50 µM).
Turning to “FBN2_P35556_98_FHSYCCPGWK (UniProt P35556)”, the “probe-labelled cysteine peptide fold change” value came to 0.0697 (10 µM) and 0.354 (50 µM).
Turning to “FAM160B1_Q5W0V3_78_APVTDTNIPSHLEQMLDILVQEENERESGETGPCMEYLLHHK (UniProt Q5W0V3)”, the “probe-labelled cysteine peptide fold change” value stood at 0.212 (10 µM) and 0.28 (50 µM).
For “FAM129A_Q9BZQ8_891_IHECQWVVEDAPNPDVLLSHK (UniProt Q9BZQ8)”, the “probe-labelled cysteine peptide fold change” value runs as follows: (10 µM) 0.0168; (50 µM) -0.235.
Turning to “FBXO30_Q8TB52_570_RFCPSIQGAK (UniProt Q8TB52)”, the “probe-labelled cysteine peptide fold change” value reads like this: (10 µM) 0.00556; (50 µM) 0.152.
In the case of “FBN2_P35556_1162_NCMDIDECERNPLLCR (UniProt P35556)”, the “probe-labelled cysteine peptide fold change” value is -0.0599 (10 µM) and 0.136 (50 µM).
In the case of “FAM91A1_Q658Y4_232_GFIYLDVPISDDSCIAVPPLEGFVMNR (UniProt Q658Y4)”, the “probe-labelled cysteine peptide fold change” value is, setting by setting: (10 µM) 0.0936; (50 µM) -0.0981.
In the case of “FBXL20_Q96IG2_179_ALSEGCPLLEQLNISWCDQVTK (UniProt Q96IG2)”, the “probe-labelled cysteine peptide fold change” value (10 µM) was 0.0297 and the “probe-labelled cysteine peptide fold change” value (50 µM) was -0.00366.
In the case of “FAM91A1_Q658Y4_750_IAAHGLCR (UniProt Q658Y4)”, the “probe-labelled cysteine peptide fold change” value (10 µM) was 0.025 and the “probe-labelled cysteine peptide fold change” value (50 µM) was 0.13.
Consider “FAM208A_Q9UK61_734_TSNLSENCHLYEESPQPIGSLGHDADLRR (UniProt Q9UK61)”, for which the “probe-labelled cysteine peptide fold change” value (10 µM) was 0.0803 and the “probe-labelled cysteine peptide fold change” value (50 µM) was -0.0546.
Take “FDPS_P14324_183_RGQICWYQKPGVGLDAINDANLLEACIYR (UniProt P14324)”: the “probe-labelled cysteine peptide fold change” value by setting is: (10 µM) -0.335; (50 µM) 0.0351.
As to “FBXL20_Q96IG2_364_HLGNGACAHDQLEVIELDNCPLITDASLEHLK (UniProt Q96IG2)”, the “probe-labelled cysteine peptide fold change” value was -0.0816 (10 µM) and 0.115 (50 µM).
Regarding “FAM160B1_Q5W0V3_460_LIEHCDHISDEISIMTLR (UniProt Q5W0V3)”, the “probe-labelled cysteine peptide fold change” value by setting is: (10 µM) -0.0338; (50 µM) -0.242.
As to “FASTKD1_Q53R41_716_MLAEVLGGINCVK (UniProt Q53R41)”, the “probe-labelled cysteine peptide fold change” value is -0.0662 (10 µM) and 0.00748 (50 µM).
The matching figures for “FAM241A_Q8N8J7_2_CSAGELLR (UniProt Q8N8J7)”: 0.306 and 0.559.
“FBXO4_Q9UKT5_330_HEWQDEFSHIMAMTDPAFGSSGRPLLVLSCISQGDVKR (UniProt Q9UKT5)”: the “probe-labelled cysteine peptide fold change” value (10 µM) worked out at 0.00118 and the “probe-labelled cysteine peptide fold change” value (50 µM) is -0.139.
The matching figures for “FBN2_P35556_1812_AVDIDECK (UniProt P35556)”: -0.143 and 0.0853.
As for “FERMT3_Q86UX7_194_GMPAHFSDSAQTEACYHMLSRPQPPPDPLLLQR (UniProt Q86UX7)”, the “probe-labelled cysteine peptide fold change” value was -0.196 (10 µM) and -0.49 (50 µM).
With “FAM91A1_Q658Y4_479_CESLLGLDPATCSR (UniProt Q658Y4)”, the “probe-labelled cysteine peptide fold change” value is -0.0221 (10 µM) and 0.0589 (50 µM).
The matching figures for “FAR2_Q96K12_104+111_EDMQELLSCTNIIFHCAATVR (UniProt Q96K12)”: 0.0855 and 0.0839.
The matching figures for “FCHSD2_O94868_304_DYNLQLFLQENAVFHKPQPFQFQPCDSDTSR (UniProt O94868)”: -0.119 and 0.0239.
For the target “FER_P16591-3_23_DQLESGFGSQSCK (UniProt P16591)”, the “probe-labelled cysteine peptide fold change” value by setting is: (10 µM) -0.121; (50 µM) -0.221.
The matching figures for “FBXW8_Q8N3Y1_214_GAVSELEHVPDTVLCDVHSHDGVVIAGYTSGDVR (UniProt Q8N3Y1)”: 0.16 and 0.103.
Regarding “FASN_P49327_1564_HAQPTCPGAQLCTVYYASLNFR (UniProt P49327)”, the “probe-labelled cysteine peptide fold change” value (10 µM) was -0.0207 and the “probe-labelled cysteine peptide fold change” value (50 µM) was found to be 0.000581.
As for “FASTKD1_Q53R41_46_CTDEEQMFGFIER (UniProt Q53R41)”, the “probe-labelled cysteine peptide fold change” value was -0.037 (10 µM) and -0.134 (50 µM).
The matching figures for “FBXO9_Q9UK97_220_SLEQLSLVCR (UniProt Q9UK97)”: 0.14 and 0.27.
For the target “FASN_P49327_1558+1564_HAQPTCPGAQLCTVYYASLNFR (UniProt P49327)”, the “probe-labelled cysteine peptide fold change” value is 0.0665 (10 µM) and -0.3 (50 µM).
As to “FERMT3_Q86UX7_128_ASFSQPLFQAVAAICR (UniProt Q86UX7)”, the “probe-labelled cysteine peptide fold change” value was -0.0435 (10 µM) and 0.138 (50 µM).
Regarding “FAM98C_Q17RN3_340_REDGGPQCWGR (UniProt Q17RN3)”, the “probe-labelled cysteine peptide fold change” value is -0.121 (10 µM) and -0.539 (50 µM).
With “FAM160A2_Q8N612_258_YIADHSYFCPVLATGLSALYSSLPR (UniProt Q8N612)”, the “probe-labelled cysteine peptide fold change” value is, setting by setting: (10 µM) -0.211; (50 µM) -0.106.
On to “FBXO4_Q9UKT5_330_HEWQDEFSHIMAMTDPAFGSSGRPLLVLSCISQGDVK (UniProt Q9UKT5)”, for which the “probe-labelled cysteine peptide fold change” value was 0.014 (10 µM) and -0.235 (50 µM).
The matching figures for “FBXO7_Q9Y3I1_286_LQLLPESFICK (UniProt Q9Y3I1)”: 0.235 and 0.0337.
Regarding “FASTKD2_Q9NYY8_546_LHTLDTCLK (UniProt Q9NYY8)”, the “probe-labelled cysteine peptide fold change” value runs as follows: (10 µM) 0.142; (50 µM) 0.108.
The matching figures for “FBXL15_Q9H469_150_LSLAHCDWVDGLALR (UniProt Q9H469)”: 0.107 and 0.00341.
“FES_P07332_785_LPCPELCPDAVFR (UniProt P07332)”: the “probe-labelled cysteine peptide fold change” value was 0.101 (10 µM) and -0.156 (50 µM).
The matching figures for “FASN_P49327_2292_AAPLDSIHSLAAYYIDCIR (UniProt P49327)”: 0.0728 and 0.023.
As to “FCF1_Q9Y324_105_CIPCITDCVMAEIEK (UniProt Q9Y324)”, the “probe-labelled cysteine peptide fold change” value came out at 0.0823 (10 µM) and 0.0322 (50 µM).
With “FARSB_Q9NSD9_255_NIFIECTGTDFTK (UniProt Q9NSD9)”, the “probe-labelled cysteine peptide fold change” value reads like this: (10 µM) 0.133; (50 µM) 0.157.
